Reference: PubChem BioAssay AID652243 (Drosophila RNAi Screening Center, 2013)

- Screen: 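Fly genes required for human androgen receptor driven transcription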 (primary screen)
- System: Drosophila S2R+ cells
- Knock-down reagent: long dsRNA against Drosophila genes
- Timing: 72 h (48 h, then 24 h hormone)
- Challenge: synthetic androgen R1881 at 10 nM for 24 h
- Detection: 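Per-well raw luminescence of the androgen-driven firefly reporter and of the Renilla control, two replicates each, without normalisation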
- Scale: firefly reporter light: higher = more light from androgen-responsive reporter; Renilla control light: higher = more constitutive control signal (cell number, transfection)
- Active means: 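Hit when the log firefly-to-Renilla ratio dropped or increased by a fixed fold versus the mean of GFP or LacZ controls across duplicate plates; lowering cut given as 1.5 and as 3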
- Calls: active = hit: reporter lowered or raised; inactive = no hit
The deposit covers about 24,000 reagents; this is an unselected part of those with a known target gene and a result. In the full data, 246 (1%) are marked active. 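Plates not normalised; calls are printed but the firefly/Renilla ratio behind them is not deposited; fold cut for lowering reported inconsistently.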 The raw values are shown without normalisation. Entries without a mark were called inactive. Names joined by + are all predicted targets of the reagent. Not given: the amount of reagent.

The opening 2 entries, ahead of the listing:
firefly reporter light, replicate 1	firefly reporter light, replicate 2	Renilla control light, replicate 1	Renilla control light, replicate 2	target	amplicon
86765	77731	9.35e5	7.28e5	Grp170	DRSC18524
4.81e5	4.70e5	8.19e5	7.72e5	Grp170	DRSC24799

Main list, from the start:
firefly reporter light, replicate 1	firefly reporter light, replicate 2	Renilla control light, replicate 1	Renilla control light, replicate 2	target	amplicon
86765	77731	9.35e5	7.28e5	Grp170	DRSC18524
4.81e5	4.70e5	8.19e5	7.72e5	Grp170	DRSC24799
56922	47751	6.82e5	4.54e5	Fit2	DRSC10908
87034	1.11e5	1.71e6	1.71e6	sotv + CG10731	DRSC05930
74258	1.21e5	1.31e6	1.31e6	sotv + CG10731	DRSC05997
4.35e5	4.49e5	2.16e6	2.48e6	CG5321	DRSC19940
4.32e5	9.21e5	8.58e5	2.01e6	CG5321	DRSC22802
2.97e5	3.80e5	7.75e5	8.59e5	CG5321	DRSC27348
1.02e5	92701	6.50e5	7.18e5	CG5412	DRSC15796
1.22e5	2.67e5	2.02e6	2.69e6	CG16998	DRSC10235
1.62e5	1.29e5	1.52e6	1.54e6	CG13877 + pyx	DRSC08347
9.44e5	8.70e5	1.65e6	1.75e6	CG32281	DRSC08236
1.13e5	1.14e5	1.35e6	2.34e6	Mesh1	DRSC14433
5.95e5	7.46e5	1.48e6	1.51e6	CG4133	DRSC23122
2.65e5	3.78e5	2.75e6	2.31e6	CG32409	DRSC08780
4.27e5	3.61e5	5.99e5	5.24e5	CG32409	DRSC25913
68015	42880	3.27e5	3.10e5	dpr3	DRSC00395
93470	56146	7.81e5	5.78e5	dpr3	DRSC00396
2.73e5	4.33e5	2.18e6	3.27e6	Cisd2	DRSC14904
4.61e5	6.00e5	1.34e6	1.38e6	CG12375	DRSC02163
3.29e5	2.33e5	5.80e5	4.60e5	CG12375	DRSC26794
64310	10612	1.15e5	1.35e5	beat-IIb	DRSC13219
1.93e5	1.46e5	2.64e6	2.21e6	beat-IIb	DRSC14816
2.21e5	2.79e5	2.83e6	3.15e6	beat-IIb	DRSC15546
